Data reported in the supplement of paper PMC4862054.
Most entries show no effect beyond the scatter of the controls.

Assays:
Assay in all cases: normalised response (% of control), CellTox Green; higher = less cell death (100 = DMSO, 0 = benzethonium chloride kill control)
Conditions in all cases: incubation time: 72 h
BT-474 [1] = tested on: BT-474
Description: (§1)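 DSRT, 72 h incubation, CellTox Green / CellTiter-Glo readout. Signal is normalised to DMSO and benzethonium chloride controls. Value is the normalised response at the lowest tested concentration.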

BT-549 [2] = tested on: BT-549
Description: as §1

CAL-120 [3] = tested on: CAL-120
Description: as §1

CAL-148 [4] = tested on: CAL-148
Description: as §1

CAL-51 [5] = tested on: CAL-51
Description: as §1

CAL-85-1 [6] = tested on: CAL-85-1
Description: as §1

DU-4475 [7] = tested on: DU-4475
Description: as §1

HCC1143 = tested on: HCC1143
Description: as §1

HCC1599 [8] = tested on: HCC1599
Description: as §1

HCC1937 [9] = tested on: HCC1937
Description: as §1

HDQ-P1 [10] = tested on: HDQ-P1
Description: as §1

Hs578T [11] = tested on: Hs578T
Description: as §1

MCF-10A = tested on: MCF-10A
Description: as §1

MDA-MB-231 [12] = tested on: MDA-MB-231
Description: as §1

MDA-MB-436 = tested on: MDA-MB-436
Description: as §1

MDA-MB-453 [13] = tested on: MDA-MB-453
Description: as §1

MDA-MB-468 [14] = tested on: MDA-MB-468
Description: as §1

MFM-223 [15] = tested on: MFM-223
Description: as §1

BT-474 [16] = tested on: BT-474; remark: listed apart in the source
Description: (§2)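 DSRT, 72 h incubation, CellTox Green / CellTiter-Glo readout. Signal is normalised to DMSO and benzethonium chloride controls. Value is the normalised response at dose 2.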

BT-549 [17] = tested on: BT-549; remark: listed apart in the source
Description: as §2

CAL-120 [18] = tested on: CAL-120; remark: listed apart in the source
Description: as §2

CAL-148 [19] = tested on: CAL-148; remark: listed apart in the source
Description: as §2

CAL-51 [20] = tested on: CAL-51; remark: listed apart in the source
Description: as §2

CAL-85-1 [21] = tested on: CAL-85-1; remark: listed apart in the source
Description: as §2

DU-4475 [22] = tested on: DU-4475; remark: listed apart in the source
Description: as §2

HCC1599 [23] = tested on: HCC1599; remark: listed apart in the source
Description: as §2

HCC1937 [24] = tested on: HCC1937; remark: listed apart in the source
Description: as §2

HDQ-P1 [25] = tested on: HDQ-P1; remark: listed apart in the source
Description: as §2

Hs578T [26] = tested on: Hs578T; remark: listed apart in the source
Description: as §2

MDA-MB-231 [27] = tested on: MDA-MB-231; remark: listed apart in the source
Description: as §2

MDA-MB-453 [28] = tested on: MDA-MB-453; remark: listed apart in the source
Description: as §2

MDA-MB-468 [29] = tested on: MDA-MB-468; remark: listed apart in the source
Description: as §2

MFM-223 [30] = tested on: MFM-223; remark: listed apart in the source
Description: as §2

Structure (SMILES) | normalised response (BT-474 [1]) | normalised response (BT-549 [2]) | normalised response (CAL-120 [3]) | normalised response (CAL-148 [4]) | normalised response (CAL-51 [5]) | normalised response (CAL-85-1 [6]) | normalised response (DU-4475 [7]) | normalised response (HCC1143) | normalised response (HCC1599 [8]) | normalised response (HCC1937 [9]) | normalised response (HDQ-P1 [10]) | normalised response (Hs578T [11]) | normalised response (MCF-10A) | normalised response (MDA-MB-231 [12]) | normalised response (MDA-MB-436) | normalised response (MDA-MB-453 [13]) | normalised response (MDA-MB-468 [14]) | normalised response (MFM-223 [15]) | normalised response (BT-474 [16]) | normalised response (BT-549 [17]) | normalised response (CAL-120 [18]) | normalised response (CAL-148 [19]) | normalised response (CAL-51 [20]) | normalised response (CAL-85-1 [21]) | normalised response (DU-4475 [22]) | normalised response (HCC1599 [23]) | normalised response (HCC1937 [24]) | normalised response (HDQ-P1 [25]) | normalised response (Hs578T [26]) | normalised response (MDA-MB-231 [27]) | normalised response (MDA-MB-453 [28]) | normalised response (MDA-MB-468 [29]) | normalised response (MFM-223 [30])
C/C(=C\c1csc(C)n1)[C@@H]1C[C@@H]2O[C@]2(C)CCC[C@H](C)[C@H](O)[C@@H](C)C(=O)C(C)(C)[C@@H](O)CC(=O)N1 [Ixabepilone] (0.1 nM) | 97.5% | 106% | 104% | 99.3% | 109% | 92.6% | 106% | 104% | 100% | 100% | 94.2% | 84.6% | 99.9% | 105% | 93.8% | 104% | 87.6% | 92.8% |  |  |  |  |  |  |  |  |  |  |  |  |  |  | 
S=c1[nH]cnc2nc[nH]c12 [Mercaptopurine] (1 nM) | 100% | 91.2% | 101% | 101% | 104% | 104% | 99.8% | 90.4% | 98.7% | 107% | 99% | 97.7% | 69.9% | 105% | 58.9% | 96.8% | 129% | 95.4% |  |  |  |  |  |  |  |  |  |  |  |  |  |  | 
COc1cc2ncnc(Nc3ccc(F)c(Cl)c3)c2cc1NC(=O)/C=C/CN1CCCCC1 [Dacomitinib] (0.1 nM) | 78.7% | 79% | 73% | 63.3% | 72.3% | 78.4% | 102% | 111% | 107% | 92.7% | 77.4% | 94.1% | 86.5% | 111% | 88.6% | 95.2% | 75.5% | 101% |  |  |  |  |  |  |  |  |  |  |  |  |  |  | 
C/C(=C\c1csc(C)n1)[C@@H]1C[C@@H]2O[C@]2(C)CCC[C@H](C)[C@H](O)[C@@H](C)C(=O)C(C)(C)[C@@H](O)CC(=O)N1 [Ixabepilone] (1 nM) |  |  |  |  |  |  |  |  |  |  |  |  |  |  |  |  |  |  | 91.9% | 99% | 102% | 108% | 111% | 103% | 100% | 108% | 117% | 113% | 109% | 100% | 96.2% | 99% | 97.3%
